PubChem BioAssay AID686938 – Drosophila RNAi Screening Center – 2013
In all, the deposit lists about 23,000 reagents; below is an unselected part of those with a known target gene and a result. Over the whole deposit, 75 (0.33%) were called active. 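Raw plate signals without normalisation; calls rest on plate z-scores that were not deposited; ratio present for only 364 wells.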 A plus sign joins genes that one reagent is predicted to hit. Not given: the dose of the treatment.

- Assay: 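Knock-downs reducing store-operated calcium influx in Drosophila cells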 (primary screen)
- Cells: Drosophila S2R+ cells
- Reagents: long dsRNA against Drosophila genes, about 0.25 µg dsRNA per well, roughly 10,000 cells
- Timing: 5 days of knock-down before the calcium assay
- Challenge: thapsigargin (SERCA pump blocker) to empty calcium stores; entry signal taken 4 min after adding it
- Measurement: 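Per-well fluo-4 fluorescence in two replicates, unnormalised, measured in resting cells and 4 min after store depletion by the SERCA blocker thapsigargin; ratio of the two present in few wells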
- Direction: calcium entry signal: higher = stronger calcium signal after store depletion; resting calcium signal: higher = higher resting calcium signal
- Active means: 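Called when the plate z-score of the entry-to-rest ratio, mean of duplicates, falls below −3; wells with low overall dye signal (Fmax z below −2) or more than five off-targets excluded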
- Calls: active = strongly reduced calcium entry; inactive = no strong reduction

| Target gene | dsRNA | calcium entry signal, replicate 1 (fluorescence units) | calcium entry signal, replicate 2 (fluorescence units) | resting calcium signal, replicate 1 (fluorescence units) | resting calcium signal, replicate 2 (fluorescence units) | activity call |
| --- | --- | --- | --- | --- | --- | --- |
| CG14427 | DRSC17921 | 5.12e7 | 4.86e7 | 2.37e7 | 1.94e7 | inactive |
| CG8089 | DRSC07074 | 3.60e7 | 3.98e7 | 1.82e7 | 1.93e7 | inactive |
| CG1907 | DRSC15399 | 2.72e7 | 3.30e7 | 1.31e7 | 1.58e7 | inactive |
| CG9686 | DRSC18439 | 3.43e7 | 5.37e7 | 1.70e7 | 2.67e7 | inactive |
| CG31960 | DRSC00281 | 3.77e7 | 3.86e7 | 1.78e7 | 1.69e7 | inactive |
| CG2577 | DRSC19863 | 3.32e7 | 2.96e7 | 1.69e7 | 1.51e7 | inactive |
| CG2577 | DRSC23309 | 4.03e7 | 4.22e7 | 2.02e7 | 2.02e7 | inactive |
| CG12698 | DRSC19485 | 3.62e7 | 2.81e7 | 1.83e7 | 1.31e7 | inactive |
| milt | DRSC00965 | 3.29e7 | 3.35e7 | 1.93e7 | 1.48e7 | inactive |
| milt | DRSC00966 | 2.76e7 | 3.07e7 | 1.62e7 | 1.56e7 | inactive |
| milt | DRSC02281 | 4.29e7 | – | 2.00e7 | – | inactive |
| Rala | DRSC18703 | 1.69e7 | 2.98e7 | 8.70e6 | 1.25e7 | inactive |
| RhoGAP100F | DRSC15409 | 2.93e7 | 3.46e7 | 1.29e7 | 1.68e7 | inactive |
| l(3)07882 | DRSC15882 | 3.00e7 | 2.84e7 | 1.54e7 | 1.65e7 | inactive |
| CG12795 | DRSC00354 | 3.12e7 | 3.04e7 | 1.60e7 | 1.48e7 | inactive |
| Rpn10 | DRSC11876 | 2.26e7 | 4.25e7 | 1.30e7 | 2.15e7 | inactive |
| Dhdds | DRSC17756 | 2.21e7 | 3.05e7 | 1.18e7 | 1.55e7 | inactive |
| CG13857 | DRSC14707 | 4.11e7 | 4.76e7 | 5.13e7 | 2.03e7 | inactive |
| MTA1-like | DRSC12382 | 4.47e7 | 3.42e7 | 2.15e7 | 1.59e7 | inactive |
| MTA1-like | DRSC22022 | 2.78e7 | 5.43e7 | 1.35e7 | 2.98e7 | inactive |
| CG42525 | DRSC08026 | 4.05e7 | 3.85e7 | 1.77e7 | 1.72e7 | inactive |
| Sas-6 | DRSC15061 | 4.21e7 | 6.09e7 | 2.21e7 | 2.70e7 | inactive |
| CG17760 | DRSC06694 | 3.54e7 | 4.60e7 | 1.71e7 | 1.98e7 | inactive |
| CG34007 | DRSC01790 | 3.17e7 | 5.78e7 | 1.43e7 | 2.25e7 | inactive |
| CR14033 | DRSC02358 | 4.19e7 | – | 2.22e7 | – | inactive |
| CG8435 | DRSC07179 | 2.09e7 | 2.07e7 | 1.23e7 | 1.25e7 | inactive |
| Smyd4-4 | DRSC05956 | 3.97e7 | 4.33e7 | 1.79e7 | 2.03e7 | inactive |
| CG32198 | DRSC09553 | 4.33e7 | 4.22e7 | 1.96e7 | 2.09e7 | inactive |
| Nipped-A | DRSC04882 | 2.92e7 | 4.58e7 | 1.41e7 | 1.98e7 | inactive |
| Nipped-A | DRSC04883 | 2.91e7 | 2.54e7 | 1.80e7 | 1.63e7 | inactive |
| Nipped-A | DRSC04884 | 2.98e7 | 3.08e7 | 2.03e7 | 1.91e7 | active |
| Nipped-A | DRSC07738 | 2.52e7 | 2.47e7 | 1.55e7 | 1.45e7 | inactive |
| Nipped-A | DRSC22386 | 2.29e7 | 3.82e7 | 1.41e7 | 2.71e7 | inactive |
| alpha-Est3 | DRSC12615 | 2.77e7 | 2.67e7 | 1.23e7 | 1.28e7 | inactive |
| Ir62a | DRSC08250 | 3.53e7 | 4.21e7 | 1.82e7 | 1.98e7 | inactive |
| Lrch | DRSC02996 | 3.73e7 | – | 2.02e7 | – | inactive |
| CG10077 | DRSC09691 | 5.22e7 | 3.28e7 | 3.13e7 | 1.43e7 | inactive |
| bi | DRSC18742 | 3.25e7 | 4.04e7 | 1.50e7 | 1.75e7 | inactive |
| CtsL2 | DRSC06978 | 3.73e7 | 3.05e7 | 1.65e7 | 1.46e7 | inactive |
| dbo | DRSC11339 | 5.19e7 | 6.67e7 | 2.31e7 | 2.64e7 | inactive |
| Cmpk | DRSC16643 | 3.61e7 | 3.66e7 | 1.67e7 | 1.72e7 | inactive |
| alka | DRSC06136 | 4.26e7 | 3.91e7 | 1.84e7 | 1.64e7 | inactive |
| CG4854 | DRSC15663 | 2.84e7 | 3.19e7 | 3.48e7 | 1.40e7 | inactive |
| Rhau | DRSC03200 | 2.37e7 | – | 1.29e7 | – | inactive |
| CG3014 | DRSC15458 | 4.10e7 | 3.33e7 | 1.97e7 | 1.63e7 | inactive |
| Cph | DRSC17507 | 2.95e7 | 2.87e7 | 1.52e7 | 1.32e7 | inactive |
| Cph | DRSC18434 | 3.47e7 | 4.82e7 | 1.80e7 | 2.16e7 | inactive |
| CG5577 | DRSC10519 | 4.07e7 | 4.22e7 | 1.92e7 | 2.91e7 | inactive |
| Rab27 | DRSC18567 | 2.11e7 | 2.65e7 | 9.64e6 | 1.23e7 | inactive |
| CG32811 | DRSC22649 | 3.82e7 | 3.08e7 | 2.33e7 | 1.55e7 | inactive |
| CG1494 | DRSC20509 | 4.03e7 | 3.69e7 | 2.30e7 | 1.75e7 | inactive |
| Efhc1.2 | DRSC06027 | 3.16e7 | 2.74e7 | 1.45e7 | 1.30e7 | inactive |
| KaiR1D | DRSC15516 | 3.51e7 | 4.70e7 | 6.90e7 | 2.17e7 | inactive |
| PolA2 | DRSC16641 | 3.96e7 | 4.42e7 | 2.26e7 | 2.25e7 | inactive |
| His3.3A | DRSC03343 | 2.07e7 | 2.00e7 | 1.24e7 | 1.19e7 | inactive |
| Ucp4B + asRNA:CR43465 | DRSC02665 | 3.61e7 | 4.06e7 | 1.72e7 | 1.90e7 | inactive |
| wisp | DRSC19703 | 2.58e7 | 2.93e7 | 1.35e7 | 1.42e7 | inactive |
| wisp | DRSC23092 | 5.29e7 | 3.38e7 | 2.52e7 | 1.54e7 | inactive |
| CG11608 | DRSC14334 | 3.27e7 | 3.92e7 | 1.75e7 | 2.07e7 | inactive |
| CG14708 | DRSC14930 | 3.96e7 | 4.26e7 | 1.84e7 | 1.89e7 | inactive |
| Cpr49Aa | DRSC07197 | 3.48e7 | 4.44e7 | 1.77e7 | 2.03e7 | inactive |
| MnM | DRSC08423 | 3.29e7 | 2.88e7 | 1.85e7 | 1.49e7 | inactive |
| SP | DRSC09664 | 3.15e7 | 4.99e7 | 1.58e7 | 2.13e7 | inactive |
| Kif19A | DRSC16576 | 2.23e7 | 2.56e7 | 1.24e7 | 1.38e7 | inactive |
| lqfR | DRSC14703 | 3.18e7 | 3.37e7 | 1.69e7 | 1.53e7 | inactive |
| lqfR | DRSC14704 | 3.29e7 | 3.96e7 | 4.41e7 | 1.96e7 | inactive |
| CG5111 | DRSC15717 | 4.23e7 | 3.64e7 | 2.00e7 | 1.73e7 | inactive |
| X11L | DRSC19958 | 2.62e7 | 4.84e7 | 1.23e7 | 2.08e7 | inactive |
| X11L | DRSC19959 | 2.13e7 | 2.66e7 | 1.12e7 | 1.23e7 | inactive |
| UGP + PGRP-LF | DRSC10418 | 1.59e7 | 1.95e7 | 8.94e6 | 9.57e6 | inactive |
| CG33308 | DRSC01419 | 2.93e7 | 3.40e7 | 1.76e7 | 1.81e7 | inactive |
| tapas | DRSC05950 | 3.80e7 | 3.44e7 | 1.72e7 | 1.76e7 | inactive |
| CG14480 | DRSC06452 | 4.74e7 | 5.60e7 | 2.08e7 | 2.54e7 | inactive |
| CG4281 | DRSC18521 | 3.26e7 | 3.30e7 | 1.48e7 | 1.52e7 | inactive |
| lin | DRSC07644 | 2.36e7 | 2.37e7 | 1.10e7 | 1.14e7 | inactive |

Hits, of those listed so far:
| Target gene | dsRNA | calcium entry signal, replicate 1 (fluorescence units) | calcium entry signal, replicate 2 (fluorescence units) | resting calcium signal, replicate 1 (fluorescence units) | resting calcium signal, replicate 2 (fluorescence units) | activity call |
| --- | --- | --- | --- | --- | --- | --- |
| Nipped-A | DRSC04884 | 2.98e7 | 3.08e7 | 2.03e7 | 1.91e7 | active |
